Some of the results follow. Cut-off read from the data, not from the text of the source: active = 150% or more and inactive = the rest. Repeats are few or missing, and single values can be far off.

For the assay, the system named is Staphylococcus aureus JE2-lux inside RAW 264.7 macrophages. Briefly: intracellular bacterial bioluminescence relative to DMSO vehicle; higher = higher intracellular bacterial metabolic activity. The following applies: 10 µM; treatment time 4 h; gentamicin 50 µg/ml.
As to `Cc1cccc(NC(=O)NC2CC(=O)N(c3ccc(F)cc3)C2)n1` (centres undefined), the intracellular bacterial bioluminescence is inactive: 126%. To `CCOCCCn1c(SCC(=O)Nc2ccc(C)cc2C)nc2c(oc3ccccc32)c1=O` belongs inactive: 114%; to `Cc1ccc2cc(C#N)c(N3CCCN(C(=S)NCc4ccco4)CC3)nc2c1C`, inactive: 84.5%; to `CCOC(=O)c1sc(NC(=O)c2cc3c(ccc4ccccc43)oc2=O)cc1C`, inactive: 88.4%. The result for `C=CCOc1ccccc1NC(=O)c1nnn(-c2ccccc2)c1C` reads inactive: 56.8%; that for `CCOc1ccccc1CNC(=O)c1sc(-n2cccc2)nc1C`, inactive: 71.1%.

Regarding `COc1cccc(C(=O)Nc2c(-n3cnnc3)nn(C)c2C)c1`, the intracellular bacterial bioluminescence is inactive: 111%.

As to `COc1cc(OC)cc(C(=O)Nc2cc3c4c(c2)CCC(=O)N4CCC3)c1`, the intracellular bacterial bioluminescence was inactive: 102%. For `Cc1ccc2[nH]c3nc(SCC(=O)Nc4ccc5c(c4)OCO5)nnc3c2c1`, the intracellular bacterial bioluminescence was inactive: 101%. For `CCOC(=O)CSc1nc(C)nc2c1c(=O)n(C)c(=O)n2C`, the intracellular bacterial bioluminescence was inactive: 110%.

With `CC1CCc2nc(NC(=S)NC(=O)c3ccccc3)sc2C1` (centres undefined), the intracellular bacterial bioluminescence was inactive: 90.1%.

For the molecule `O=C(NNC1=C/C(=N/S(=O)(=O)c2ccccc2)c2ccccc2C1=O)c1cccc([N+](=O)[O-])c1`, the intracellular bacterial bioluminescence is inactive: 60.1%. For `COc1ccc(N2C(=O)CC(NNC(=O)c3ccccc3)C2=O)cc1` (centres undefined), the intracellular bacterial bioluminescence was inactive: 113%. For the molecule `CCn1c(=O)c(-c2noc(CCC(=O)Nc3ccc(OC)cc3)n2)nn(-c2ccc(C)cc2)c1=O`, the intracellular bacterial bioluminescence is inactive: 79.6%. Take `COc1ccc(Cc2cnc(NC(=O)/C=C/c3ccc([N+](=O)[O-])cc3)s2)cc1`: the intracellular bacterial bioluminescence is inactive: 87.4%. To `Nc1c(C(=O)c2ccccc2)sc2nc3c(c(-c4ccco4)c12)CC/C3=C\c1ccco1` belongs inactive: 77%; to `Cc1cc2cc(C#N)c(NCCNC(=S)Nc3ccccc3Cl)nc2cc1C`, inactive: 109%.

Take `CN1C(=O)/C(=N\NC(=O)CCCC(=O)N/N=C2/C(=O)N(C)c3ccccc32)c2ccccc21`: the intracellular bacterial bioluminescence was inactive: 90%.

For the molecule `CSc1cccc(NC(=O)CN2N=NC3C(=O)N(c4ccc(F)c(F)c4)C(=O)C32)c1` (centres undefined), the intracellular bacterial bioluminescence is inactive: 113%.

With `CN(C)CCCNS(=O)(=O)c1ccc2c(c1)NC(=O)C(C)(C)O2`, the intracellular bacterial bioluminescence was inactive: 108%. With `COc1ccc(NCc2cc3cc(OC)c(OC)cc3n(CC(=O)Nc3cccc(F)c3)c2=O)cc1`, the intracellular bacterial bioluminescence is inactive: 88.5%.

With `O=C(CSc1ncnc2c1oc1ccccc12)Nc1nccs1`, the intracellular bacterial bioluminescence was inactive: 72.8%.

`O=C(CSc1nnc2[nH]c(=O)c(-c3ccc(Cl)cc3)nn12)c1ccc([N+](=O)[O-])cc1`: the intracellular bacterial bioluminescence is inactive: 74.2%. On to `CC(=O)Nc1ccc(S(=O)(=O)NCCc2cn3ccc(C)cc3n2)cc1`, for which the intracellular bacterial bioluminescence is inactive: 101%.

Values taken from the supplement of paper PMC12578635.
